# Measurements as given in patent publication EP0369664B1 (THE SALK INSTITUTE FOR BIOLOGICAL STUDIES, priority 1988, dated 1994).
# Strings that start with PEPTIDE1 are HELM notation: dots part the residues, brackets hold end groups and non-standard residues.
# Assay: Boc solid-phase peptide synthesis; MBHA resin; carbodiimides such as N,N'-diisopropyl carbodiimide
# Details: whole synthesis, HPLC
substance,measurement,value
PEPTIDE1{S.E.E.P.P.I.S.L.D.L.T.F.H.L.L.R.E.V.L.E.M.A.R.A.E.Q.L.A.Q.Q.A.H.S.N.R.K.M.M.E.I.F.[am]}$$$$V2.0,final purity (method not given),about 95%
